PubChem BioAssay AID1159578 – Peter MacCallum Cancer Centre | 2015
Shown is one part, drawn at random, of about 18,000 reagents tested. Of all reagents, about 1,030 (5.7%) got an active call. 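Inactive calls also include pools with fewer than 3300 nuclei, whose migration was not assessed.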 Raw values are not corrected between plates. Entries without a mark were called inactive. Further read-outs or replicates are left out here. Reagent sequences are not shown.

- Screen: 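Genome-wide hunt for genes controlling movement of lymphatic endothelial cells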 (primary screen)
- System: human lymphatic endothelial cells
- Reagents: siRNA pool against human genes, 40 nM
- Time to read-out: 48 h after transfection
- Measurement: 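Cells stained with dye and imaged after a scratch; covered wound area and nuclei counted, duplicates averaged, migration set against mock wells and turned into a robust z-score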
- Reading the numbers: migration robust z-score: higher = faster migration into the scratch; nuclei per well: higher = more cells in the well
- Rule for the call: 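Migration changed when robust z exceeds 2 or falls below -2 and mean nuclei number is at least 3300; otherwise not called changed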
- Meaning of the calls: active = migration changed; inactive = no migration change, or too few cells

MTMR10 → migration robust z-score: -0.91; nuclei per well, duplicate mean: 6366
SNIP1 → migration robust z-score: -1.07; nuclei per well, duplicate mean: 4722
AIMP2 → migration robust z-score: -1.86; nuclei per well, duplicate mean: 5394
NUTM1 → migration robust z-score: 0.6; nuclei per well, duplicate mean: 5872
TNK2 → migration robust z-score: -0.62; nuclei per well, duplicate mean: 3839
TRIM13 → migration robust z-score: 0.73; nuclei per well, duplicate mean: 6702
EIF3L → migration robust z-score: -0.63; nuclei per well, duplicate mean: 5568
CEP72 → migration robust z-score: -0.86; nuclei per well, duplicate mean: 4842
TM4SF20 → migration robust z-score: 0.45; nuclei per well, duplicate mean: 6184
MPC2 → migration robust z-score: -0.13; nuclei per well, duplicate mean: 6200
CCNA2 → migration robust z-score: -0.7; nuclei per well, duplicate mean: 2482
VCF1 → migration robust z-score: -0.6; nuclei per well, duplicate mean: 6150
ARHGEF19 → migration robust z-score: -0.97; nuclei per well, duplicate mean: 6614
RAP2C → migration robust z-score: -0.73; nuclei per well, duplicate mean: 3828
VRK3 → migration robust z-score: 0.26; nuclei per well, duplicate mean: 6092
RRP36 → migration robust z-score: 0.12; nuclei per well, duplicate mean: 5108
P2RX3 → migration robust z-score: -0.21; nuclei per well, duplicate mean: 5061
SLC24A4 → migration robust z-score: 0.94; nuclei per well, duplicate mean: 5768
PCDHGA4 → migration robust z-score: -0.09; nuclei per well, duplicate mean: 5780
OR2V2 → migration robust z-score: -0.62; nuclei per well, duplicate mean: 5285
RPS12 → migration robust z-score: -1.72; nuclei per well, duplicate mean: 4869
